# Target: the molecule itself
# Assay: dialysis against 10 mM PB; self-aggregation
row,Protein,binding result
1,"E3-VB-K3 (containing 6xHis tags) (designed binder, 6xHis, E3 helix, glycine linker, V-domain, one B collagen region, glycine linker, K3 helix; also called collagen E3-VB-K3; designed collagen E3-VB-K3) HHHHHHGEISALEKEISALEKEISALEKGGGGGGGADEQEEKAKVRTELIQELAQGLGGIEKKNFPTLGDEDLDHTYMTKLLTYLQEREQAENSWRKRLLKGIQDHALDPGPRGEQGPQGLPGKDGEAGAQGPAGPMGPAGFPGERGEKGEPGTQGAKGDRGETGPVGPRGERGEAGPAGKDGERGPVGPAGGGGGGGGKISALKEKISALKEKISALKE",binds
2,"E3-VBB-K3 (containing 6xHis tags) (designed binder, As E3-VB-K3 but with two repeated B collagen regions; also called collagen E3-VBB-K3; designed collagen E3-VBB-K3) HHHHHHGEISALEKEISALEKEISALEKGGGGGGGADEQEEKAKVRTELIQELAQGLGGIEKKNFPTLGDEDLDHTYMTKLLTYLQEREQAENSWRKRLLKGIQDHALDPGPRGEQGPQGLPGKDGEAGAQGPAGPMGPAGFPGERGEKGEPGTQGAKGDRGETGPVGPRGERGEAGPAGKDGERGPVGPAGPRGEQGPQGLPGKDGEAGAQGPAGPMGPAGFPGERGEKGEPGTQGAKGDRGETGPVGPRGERGEAGPAGKDGERGPVGPAGGGGGGGGKISALKEKISALKEKISALKE",binds
3,"E3-VBBB-K3 (containing 6xHis tags) (designed binder, As E3-VB-K3 but with three repeated B collagen regions; also called collagen E3-VBBB-K3; designed collagen E3-VBBB-K3) HHHHHHGEISALEKEISALEKEISALEKGGGGGGGADEQEEKAKVRTELIQELAQGLGGIEKKNFPTLGDEDLDHTYMTKLLTYLQEREQAENSWRKRLLKGIQDHALDPGPRGEQGPQGLPGKDGEAGAQGPAGPMGPAGFPGERGEKGEPGTQGAKGDRGETGPVGPRGERGEAGPAGKDGERGPVGPAGPRGEQGPQGLPGKDGEAGAQGPAGPMGPAGFPGERGEKGEPGTQGAKGDRGETGPVGPRGERGEAGPAGKDGERGPVGPAGPRGEQGPQGLPGKDGEAGAQGPAGPMGPAGFPGERGEKGEPGTQGAKGDRGETGPVGPRGERGEAGPAGKDGERGPVGPAGGGGGGGGKISALKEKISALKEKISALKE",binds

# From patent US20210163576A1 (JIANGNAN UNIVERSITY, published 2021)
